No constants are given. Whether binding was seen depends on the method and setting. Binding seen in cells or lysates may run through a third protein. Some binding calls cover weakened binding; strength is not graded here.
Biological target: T1, MEX3A (human) (UniProt A1L020)
T1 sequence: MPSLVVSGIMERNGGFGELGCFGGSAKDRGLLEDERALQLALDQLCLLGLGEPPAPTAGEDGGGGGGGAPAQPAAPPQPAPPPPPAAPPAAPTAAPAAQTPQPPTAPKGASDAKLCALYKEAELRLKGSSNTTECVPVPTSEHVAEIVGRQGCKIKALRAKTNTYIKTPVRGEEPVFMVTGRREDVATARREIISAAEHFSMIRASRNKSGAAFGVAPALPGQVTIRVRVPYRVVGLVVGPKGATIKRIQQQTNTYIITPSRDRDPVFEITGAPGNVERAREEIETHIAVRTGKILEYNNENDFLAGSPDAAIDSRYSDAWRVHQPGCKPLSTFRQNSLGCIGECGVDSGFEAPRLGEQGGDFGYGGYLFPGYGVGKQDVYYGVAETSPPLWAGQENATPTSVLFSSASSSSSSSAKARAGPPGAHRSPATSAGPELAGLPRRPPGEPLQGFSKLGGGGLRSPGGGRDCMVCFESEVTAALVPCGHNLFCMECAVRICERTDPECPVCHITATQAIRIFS
Test: co-IP; not described in the methods; cells, precipitating antibody and bait are not told

By UniProt entry, the sequences of proteins in these tests, tags left out.
UniProt Q00534: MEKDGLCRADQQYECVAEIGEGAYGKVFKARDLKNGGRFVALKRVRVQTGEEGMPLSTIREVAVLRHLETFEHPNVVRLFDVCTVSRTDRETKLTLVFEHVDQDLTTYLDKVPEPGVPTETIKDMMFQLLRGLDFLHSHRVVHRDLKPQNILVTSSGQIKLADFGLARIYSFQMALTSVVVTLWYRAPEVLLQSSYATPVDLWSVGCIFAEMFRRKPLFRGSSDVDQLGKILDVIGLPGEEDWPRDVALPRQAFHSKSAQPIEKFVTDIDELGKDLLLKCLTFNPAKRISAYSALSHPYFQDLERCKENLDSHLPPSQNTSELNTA

CDK6 (from UniProt Q00534 1-326)
binding: binds

Reference: PMC7695430
